Reference: patent publication US20260265321A1, “PEPTIDE AND POLYPEPTIDE INHIBITING THE NF-KB SIGNALING PATHWAY” (Centre National de la Recherche Scientifique, priority 2023, published 2026)
No constants are given. Whether binding was seen depends on the method and setting. For some of these results: Binding seen in cells or lysates may run through a third protein. Some entries that bind do so weakly or less than the wild type. Tags and fused reporters may be left off the sequences shown. Each block holds one molecule with its values, some of them ahead of it.

The chains behind the UniProt entries cited, without tags or fusion partners.
UniProt P25963: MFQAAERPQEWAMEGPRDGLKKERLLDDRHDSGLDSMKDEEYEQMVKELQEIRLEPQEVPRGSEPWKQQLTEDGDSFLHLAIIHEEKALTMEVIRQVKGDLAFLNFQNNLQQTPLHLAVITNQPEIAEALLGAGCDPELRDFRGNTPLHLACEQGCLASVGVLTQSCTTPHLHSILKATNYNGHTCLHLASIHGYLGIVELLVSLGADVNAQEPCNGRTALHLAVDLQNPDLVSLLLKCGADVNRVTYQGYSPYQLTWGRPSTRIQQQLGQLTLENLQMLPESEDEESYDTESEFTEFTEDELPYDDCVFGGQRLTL

Experiments:
[1] = biological target: T1, 6×His-IKKβ(1-669) EE (human) (UniProt O14920); experiment: MBP pulldown, purified proteins
T1 sequence (looked up): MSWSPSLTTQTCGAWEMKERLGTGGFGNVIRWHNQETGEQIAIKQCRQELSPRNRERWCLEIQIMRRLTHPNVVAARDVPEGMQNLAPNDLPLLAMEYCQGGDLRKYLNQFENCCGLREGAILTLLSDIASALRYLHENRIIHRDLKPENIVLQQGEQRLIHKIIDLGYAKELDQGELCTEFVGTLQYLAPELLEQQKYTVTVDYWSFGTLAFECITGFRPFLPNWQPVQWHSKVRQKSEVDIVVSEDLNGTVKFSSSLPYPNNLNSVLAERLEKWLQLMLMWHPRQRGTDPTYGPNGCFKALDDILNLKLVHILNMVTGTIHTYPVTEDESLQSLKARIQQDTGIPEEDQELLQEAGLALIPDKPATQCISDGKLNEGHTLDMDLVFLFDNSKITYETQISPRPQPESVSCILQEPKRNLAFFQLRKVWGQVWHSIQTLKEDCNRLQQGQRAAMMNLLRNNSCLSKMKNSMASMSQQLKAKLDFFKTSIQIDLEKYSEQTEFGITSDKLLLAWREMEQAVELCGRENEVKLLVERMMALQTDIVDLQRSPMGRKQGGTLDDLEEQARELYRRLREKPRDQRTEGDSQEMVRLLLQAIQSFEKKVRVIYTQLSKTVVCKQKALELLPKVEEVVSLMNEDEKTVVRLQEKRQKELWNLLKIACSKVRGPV

[2] = biological target: T2, G1-IKKα, full-length wt IKKα fused to the Gluc1 fragment (human) (UniProt O15111); experiment: GPCA
T2 sequence (looked up): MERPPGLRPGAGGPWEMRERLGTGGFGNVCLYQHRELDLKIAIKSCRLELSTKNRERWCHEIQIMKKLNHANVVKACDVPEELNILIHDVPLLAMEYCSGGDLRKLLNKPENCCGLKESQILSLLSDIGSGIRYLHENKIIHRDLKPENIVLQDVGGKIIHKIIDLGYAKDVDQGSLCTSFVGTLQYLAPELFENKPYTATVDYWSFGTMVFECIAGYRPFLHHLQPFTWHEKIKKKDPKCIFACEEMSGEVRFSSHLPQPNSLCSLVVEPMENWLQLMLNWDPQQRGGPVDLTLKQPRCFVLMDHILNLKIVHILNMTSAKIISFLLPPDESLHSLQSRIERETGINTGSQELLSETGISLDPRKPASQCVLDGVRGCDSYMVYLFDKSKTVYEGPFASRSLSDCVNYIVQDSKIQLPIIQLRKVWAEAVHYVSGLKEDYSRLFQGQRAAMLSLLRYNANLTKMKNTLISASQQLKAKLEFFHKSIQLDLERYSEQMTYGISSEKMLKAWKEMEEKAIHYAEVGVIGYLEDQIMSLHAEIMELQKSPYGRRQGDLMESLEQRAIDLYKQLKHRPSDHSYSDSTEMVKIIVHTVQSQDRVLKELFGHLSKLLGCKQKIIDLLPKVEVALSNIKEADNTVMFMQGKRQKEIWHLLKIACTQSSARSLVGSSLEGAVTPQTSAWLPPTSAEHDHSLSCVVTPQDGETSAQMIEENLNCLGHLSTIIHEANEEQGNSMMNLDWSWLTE

[3] = biological target: T3, G1-IKKα, full-length wt IKKα fused to the Gluc1 fragment (human), O15111; experiment: GPCA (Gaussia princeps protein complementation assay), G1-IKKα FL with G2-p100 constructs, NLR; details: remark: other sources report otherwise
T3 chain: T2 sequence (looked up)

[4] = biological target: T3, G1-IKKα, full-length wt IKKα fused to …; experiment: GPCA; details: remark: other sources report otherwise

binding [1]: binds
Molecule: MBP-IκBα full-length (from UniProt P25963 1-317)

binding [2]: binds
B1: full length IRF7 (GPCA construct) (protein, UniProt Q92985 1-503, looked up, not shown: large carriers)
chain: MALAPERAAPRVLFGEWLLGEISSGCYEGLQWLDEARTCFRVPWKHFARKDLSEADARIFKAWAVARGRWPPSSRGGGPPPEAETAERAGWKTNFRCALRSTRRFVMLRDNSGDPADPHKVYALSRELCWREGPGTDQTEAEAPAAVPPPQGGPPGPFLAHTHAGLQAPGPLPAPAGDKGDLLLQAVQQSCLADHLLTASWGADPVPTKAPGEGQEGLPLTGACAGGPGLPAGELYGWAVETTPSPGPQPAALTTGEAAAPESPHQAEPYLSPSPSACTAVQEPSPGALDVTIMYKGRTVLQKVVGHPSCTFLYGPPDPAVRATDPQQVAFPSPAELPDQKQLRYTEELLRHVAPGLHLELRGPQLWARRMGKCKVYWEVGGPPGSASPSTPACLLPRNCDTPIFDFRVFFQELVEFRARQRRGSPRYTIYLGFGQDLSAGRPKEKSLVLVKLEPWLCRVHLEGTQREGVSSLDSSSLSLCLSSANSLYDDIECFLMELEQPA

binding [3]: binds
binding [4]: binds
B2: G2-p100 FL, Q00653 1-900 (protein, UniProt Q00653 1-900, looked up, not shown: large carriers)
chain: MESCYNPGLDGIIEYDDFKLNSSIVEPKEPAPETADGPYLVIVEQPKQRGFRFRYGCEGPSHGGLPGASSEKGRKTYPTVKICNYEGPAKIEVDLVTHSDPPRAHAHSLVGKQCSELGICAVSVGPKDMTAQFNNLGVLHVTKKNMMGTMIQKLQRQRLRSRPQGLTEAEQRELEQEAKELKKVMDLSIVRLRFSAFLRASDGSFSLPLKPVISQPIHDSKSPGASNLKISRMDKTAGSVRGGDEVYLLCDKVQKDDIEVRFYEDDENGWQAFGDFSPTDVHKQYAIVFRTPPYHKMKIERPVTVFLQLKRKRGGDVSDSKQFTYYPLVEDKEEVQRKRRKALPTFSQPFGGGSHMGGGSGGAAGGYGGAGGGGSLGFFPSSLAYSPYQSGAGPMGCYPGGGGGAQMAATVPSRDSGEEAAEPSAPSRTPQCEPQAPEMLQRAREYNARLFGLAQRSARALLDYGVTADARALLAGQRHLLTAQDENGDTPLHLAIIHGQTSVIEQIVYVIHHAQDLGVVNLTNHLHQTPLHLAVITGQTSVVSFLLRVGADPALLDRHGDSAMHLALRAGAGAPELLRALLQSGAPAVPQLLHMPDFEGLYPVHLAVRARSPECLDLLVDSGAEVEATERQGGRTALHLATEMEELGLVTHLVTKLRANVNARTFAGNTPLHLAAGLGYPTLTRLLLKAGADIHAENEEPLCPLPSPPTSDSDSDSEGPEKDTRSSFRGHTPLDLTCSTKVKTLLLNAAQNTMEPPLTPPSPAGPGLSLGDTALQNLEQLLDGPEAQGSWAELAERLGLRSLVDTYRQTTSPSGSLLRSYELAGGDLAGLLEALSDMGLEEGVRLLRGPETRDKLPSTAEVKEDSAYGSQSVEQEAEKLGPPPEPPGGLCHGHPQPQVH
